Experimental findings from patent US20250277029A1, “CANNABINOID TYPE 1 RECEPTOR BINDING PROTEINS AND USES THEREOF” (AMGEN INC., priority 2022, published 2025) are described below.

By UniProt entry, the sequences of proteins in these tests, tags left out. Where a name states a change or a piece, a line headed by the entry shows the natural chain unless it says otherwise.
UniProt P21554: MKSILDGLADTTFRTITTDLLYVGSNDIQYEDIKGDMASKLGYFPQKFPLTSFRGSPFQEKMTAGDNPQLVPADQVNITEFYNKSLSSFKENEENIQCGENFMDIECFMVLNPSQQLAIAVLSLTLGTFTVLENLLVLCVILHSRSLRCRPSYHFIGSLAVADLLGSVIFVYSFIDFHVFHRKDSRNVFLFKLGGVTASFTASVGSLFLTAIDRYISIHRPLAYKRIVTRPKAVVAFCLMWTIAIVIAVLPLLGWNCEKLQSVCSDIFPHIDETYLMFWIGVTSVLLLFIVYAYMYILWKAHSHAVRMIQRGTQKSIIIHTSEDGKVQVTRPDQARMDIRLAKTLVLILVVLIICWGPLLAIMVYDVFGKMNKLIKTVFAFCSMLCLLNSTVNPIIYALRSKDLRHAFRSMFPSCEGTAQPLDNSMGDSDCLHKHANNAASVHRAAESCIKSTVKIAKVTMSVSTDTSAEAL

Results are given in words; binding and its absence hold for the method and conditions named. Some results given as binding are weak or reduced against the parent protein; the word gives no strength.

The target of experiment [1] is GFP-fused huCB1-SMALP (human CB1 in styrene maleic acid lipoparticles) (human) (UniProt P21554). Briefly: flow cytometry, yeast display.
Experiment [2] has the same target. Briefly: flow cytometry on IgG-displaying yeast, 100 nM GFP-fused huCB1-SMALP, GFP in BB515-A (y) vs AlexaFluor647 anti-huFab display in APC-A (x).

B1: LIBC527879-1 (antibody, V domains shown)
VH: QVQLQESGPGLVKPSQTLSLTCTVSGGSIRRGGDYWGWIRQHPGKGLEWIGHIYQSGSTNYNPKLKSRATISVDTYKNQFSLKLSSVTAADTAVYYCARDYDIFTGYSYYYYGMDVWGQGTTVTVSS
VL: DIQLTQSPSSLSASVGDRVTITCRASQSIISYLNWYQQKPGKAPKLLIYAASSLRSGVPSRFSGSGSGTDFTLTISSLQPEDFATYYCQQYSNYPLTFGGGTRVEIKR
On to B1, for which the binding entry in experiment [1] and in experiment [2] was “binds” each time.

B2: LIBC527919-1 (antibody, IgG1, V domains shown)
VH: QVQLQESGPGLVKPSQTLSLTCTVSGGSIRRGGDYWAWIRQHPGKGLEWIGHVYQTGSTAYNPNFKDRATISVNTYKNQFSLKLSSVTAADTAVYYCARNYDALSGYSYYYYGMDVWGQGTTVTVSS
VL: DIQLTQSPSSLSASVGDRVTITCRASQSIISYLNWYQQKPGKAPKLLIYAASSLRSGVPSRFSGSGSGTDFTLTISSLQPEDFATYYCQQYSNYPLTFGGGTRVEIKR
For the molecule B2, the binding entry in experiment [1] and in experiment [2] was “binds” each time.

B3: LIBC527827-1 (antibody, V domains shown)
VH: QVQLQESGPGLVKPSQTLSLTCTVSGGSIRRGGDYWGWIRQHPGKGLEWIGHVYQSGQTAYNPKFENRATISVKTYKNQFSLKLSSVTAADTAVYYCARNYDTLTGHSYYYYGMDVWGQGTTVTVSS
VL: DIQMTQSPSTLSASVGDRVTITCRASQSISNYLNWYQQKPGKAPKLLIYAASSLHSGVPSRFSGSGSGTDFTLTISSLQPEDFASYYCQQYQSYPLTFGQGTKVEIKR
In the case of B3, the binding result in experiment [1] and in experiment [2] was “binds” each time.

B4: LIBC523661-1 (antibody, IgG1, V domains shown)
VH: QVQLQESGPGLVKPSQTLSLTCTVSGGSIRRGGDYWSWIRQHPGKGLEWIGHIYYEGSTKYNPSFKGRATISVNTYKNQFSLKLSSVTAADTAVYYCARDYDPVTGHSYYYYGMDVWGQGTTVTVSS
VL: DIVMTQSPLSLPVTPGEPASISCRSSQSLLTSSGYNYVDWYLQKPGQSPQLLIYQGSNRASGVPDRFSGSGSGTDFTLKISRVEAEDVGVYYCRQARAIPRTFGQGTKVEIKR
In the case of B4, the binding result in experiment [1] and in experiment [2] was “binds” each time.

B5: LIBC527814-1 (antibody, IgG1, V domains shown)
VH: QVQLQESGPGLVKPSQTLSLTCTVSGGSIRRGGDYWGWIRQHPGKGLEWIGHVYQTGSTKYNPSFKDRATISVNTYKNQFSLKLSSVTAADTAVYYCARNYDTLTGYSYYYYGMDVWGQGTTVTVSS
VL: DIQMTQSPSTLSASVGDRVTITCRASQSISNYLNWYQQKPGKAPKLLIYAASSLHSGVPSRFSGSGSGTDFTLTISSLQPEDFASYYCQQYQSYPLTFGQGTKVEIKR
B5: the binding entry in experiment [1] and in experiment [2] was “binds” throughout.

B6: LIBC523844-1 (antibody, V domains shown)
VH: QVQLQESGPGLVKPSQTLSLTCTVSGGSIRRGGDYWSWIRQHPGKGLEWIGHVYYTGSTKYNPSFKDRATISVNTYKNQFSLKLSSVTAADTAVYYCARDYDILTGYSYYYYGMDVWGQGTTVTVSS
VL: DIVMTQSPLSLPVTPGEPASISCRSSQSLLSSSGANYVDWYLQKPGQSPQLLIYQGSNRASGVPDRFSGSGSGTDFTLKISRVEAEDVGVYYCRQARALPRTFGQGTKVEIKR
B6: the binding result in experiment [1] and in experiment [2] was “binds” each time.

B7: LIBC527912-1 (antibody, V domains shown)
VH: QVQLQESGPGLVKPSQTLSLTCTVSGGSIRRGGDYWSWIRQHPGKGLEWIGYIYQTGQTKYNPNFEGRATISVNTYKNQFSLKLSSVTAADTAVYYCARDYDILTGYSYYYYGMDVWGQGTTVTVSS
VL: DIQLTQSPSSLSASVGDRVTITCRASQSISSYLNWYQQKPGKAPKLLIYAASSLRSGVPSRFSGSGSGTDFTLTISSLQPEDFATYYCQQYSNYPLTFGGGTRVEIKR
On to B7, for which the binding entry in experiment [1] and in experiment [2] was “binds” in each case.

B8: LIBC523857-1 (antibody, V domains shown)
VH: QVQLQESGPGLVKPSQTLSLTCTVSGGSIRRGGDYWSWIRQHPGKGLEWIGHIYQTGQTAYNPRLEGRATISVNTYKNQFSLKLSSVTAADTAVYYCARDYDILTGYSYYYYGMDVWGQGTTVTVSS
VL: DIVMTQSPLSLPVTPGEPASISCRSSQSLLSSTGANYLDWYLQKPGQSPQLLIYLGSNRASGVPDRFSGSGSGTDFTLKISRVEAEDVGVYYCRQAVELPRTFGQGTKVEIKR
For the molecule B8, the binding result in experiment [1] and in experiment [2] was “binds” each time.

B9: LIBC523815-1 (antibody, V domains shown)
VH: QVQLQESGPGLVKPSQTLSLTCTVSGGSIRRGGDYWSWIRQHPGKGLEWIGHIYQSGQTKYNPSLKDRATISVNTYKNQFSLKLSSVTAADTAVYYCARDYDILTGYSYYYYGMDVWGQGTTVTVSS
VL: DIVMTQSPLSLPVTPGEPASISCRSSQSLLTSSGANYVDWYLQKPGQSPQLLIYLGSNRASGVPDRFSGSGSGTDFTLKISRVEAEDVGVYYCRQAREQPRTFGQGTKVEIKR
As for B9, the binding entry in experiment [1] and in experiment [2] was “binds” each time.

B10: LIBC528131-1 (antibody, V domains shown)
VH: QVQLQESGPGLVKPSQTLSLTCTVSGGSIRRGGDYWSWIRQHPGKGLEWIGHIYQTGQTAYNPNLEGRATISVNTYKNQFSLKLSSVTAADTAVYYCARDYDILTGYSYYYYGMDVWGQGTTVTVSS
VL: EIVLTQSPATLSLSPGERATLSCRASQSVSSYLGWYQQKPGQAPRLLIYGASSRATGIPDRFSGSGSGTDFTLTISRLEPEDFAVYYCQQYGSSPRTFGQGTKVEIKR
In the case of B10, the binding entry in experiment [1] and in experiment [2] was “binds” throughout.

B11: LIBC523868-1 (antibody, V domains shown)
VH: QVQLQESGPGLVKPSQTLSLTCTVSGGSIRRGGDYWSWIRQHPGKGLEWIGHVYYEGSTAYNPSFEDRATISVNTYKNQFSLKLSSVTAADTAVYYCARDYDILTGYSYYYYGMDVWGQGTTVTVSS
VL: DIVMTQSPLSLPVTPGEPASISCRSSQSLLTSYGINYVDWYLQKPGQSPQLLIYLGSNRASGVPDRFSGSGSGTDFTLKISRVEAEDVGVYYCMQARQIPRTFGQGTKVEIKR
On to B11, for which the binding entry in experiment [1] and in experiment [2] was “binds” each time.

B12: LIBC523813-1 (antibody, V domains shown)
VH: QVQLQESGPGLVKPSQTLSLTCTVSGGSIRRGGDYWSWIRQHPGKGLEWIGHVYYTGQTAYNPKFKDRATISVKTYKNQFSLKLSSVTAADTAVYYCARDYDILTGYSYYYYGMDVWGQGTTVTVSS
VL: DIVMTQSPLSLPVTPGEPASISCRSSQSLLSSSGANYVDWYLQKPGQSPQLLIYLGSNRASGVPDRFSGSGSGTDFTLKISRVEAEDVGVYYCMQARGIPRTFGQGTKVEIKR
On to B12, for which the binding entry in experiment [1] and in experiment [2] was “binds” in each case.

B13: LIBC527997-1 (antibody, IgG1, V domains shown)
VH: QVQLQESGPGLVKPSQTLSLTCTVSGGSIRRGGDYWAWIRQHPGKGLEWIGHIYQTGSTNYNPRFKGRATISVNTYKNQFSLKLSSVTAADTAVYYCARNYDTLTGYSYYYYGMDVWGQGTTVTVSS
VL: DIQMTQSPSSLSASVGDRVTITCRASQSISNYLNWYQQKPGKAPKLLIYAASSLHSGVPSRFSGSGSGTDFTLTISSLQPEDFASYYCQQYQSYPLTFGQGTKVEIKR
Consider B13, for which the binding result in experiment [1] and in experiment [2] was “binds” throughout.

B14: LIBC523670-1 (antibody, V domains shown)
VH: QVQLQESGPGLVKPSQTLSLTCTVSGGSIRRGGDYWAWIRQHPGKGLEWIGHVYQTGQTAYNPNLESRATISVNTYKNQFSLKLSSVTAADTAVYYCARNYDVLSGYSYYYYGMDVWGQGTTVTVSS
VL: DIVMTQSPLSLPVTPGEPASISCRSSQSLLTSYGANYLDWYLQKPGQSPQLLIYQGSNRASGVPDRFSGSGSGTDFTLKISRVEAEDVGVYYCMQALQIPRTFGQGTKVEIKR
With B14, the binding result in experiment [1] and in experiment [2] was “binds” throughout.

B15: LIBC527984-1 (antibody, V domains shown)
VH: QVQLQESGPGLVKPSQTLSLTCTVSGGSIRRGGDYWSWIRQHPGKGLEWIGHIYQTGKTNYNPNFKSRATISVNTYKNQFSLKLSSVTAADTAVYYCARDYDILTGYSYYYYGMDVWGQGTTVTVSS
VL: DIQMTQSPSTLSASVGDRVTITCRASQSISNYLNWYQQKPGKAPKLLIYAASSLHSGVPSRFSGSGSGTDFTLTISSLQPEDFASYYCQQYQSYPLTFGQGTKVEIKR
Regarding B15, the binding result in experiment [1] and in experiment [2] was “binds” in each case.

B16: LIBC523760-1 (antibody, V domains shown)
VH: QVQLQESGPGLVKPSQTLSLTCTVSGGSIRRGGDYWSWIRQHPGKGLEWIGHVYQTGSTKYNPKFKGRATISVNTYKNQFSLKLSSVTAADTAVYYCARDYDILTGYSYYYYGMDVWGQGTTVTVSS
VL: DIVMTQSPLSLPVTPGEPASISCRSSQSLLTSSGANYVDWYLQKPGQSPQLLIYLGSNRASGVPDRFSGSGSGTDFTLKISRVEAEDVGVYYCRQAVGTPRTFGQGTKVEIKR
Take B16: the binding entry in experiment [1] and in experiment [2] was “binds” in each case.

B17: LIBC523969-1 (antibody, V domains shown)
VH: QVQLQESGPGLVKPSQTLSLTCTVSGGSIRRGGDYWSWIRQHPGKGLEWIGHIYQTGQTKYNPNLKGRATISVNTYKNQFSLKLSSVTAADTAVYYCARDYDILTGYSYYYYGMDVWGQGTTVTVSS
VL: DIVMTQSPLSLPVTPGEPASISCRSSQSLLSSTGANYLDWYLQKPGQSPQLLIYQGSNRASGVPDRFSGSGSGTDFTLKISRVEAEDVGVYYCRQAVGLPRTFGQGTKVEIKR
On to B17, for which the binding entry in experiment [1] and in experiment [2] was “binds” throughout.

B18: LIBC523862-1 (antibody, V domains shown)
VH: QVQLQESGPGLVKPSQTLSLTCTVSGGSIRRGGDYWSWIRQHPGKGLEWIGHIYQTGSTAYNPSLKGRATISVNTYKNQFSLKLSSVTAADTAVYYCARDYDILTGYSYYYYGMDVWGQGTTVTVSS
VL: DIVMTQSPLSLPVTPGEPASISCRSSQSLLHSTGANYVDWYLQKPGQSPQLLIYLGSNRASGVPDRFSGSGSGTDFTLKISRVEAEDVGVYYCRQAIALPRTFGQGTKVEIKR
For the molecule B18, the binding result in experiment [1] and in experiment [2] was “binds” throughout.
